Binding signal data for 42 sequences are collected here from PMC7819943, “Rice protein-binding microarrays: a tool to detect cis-acting elements near promoter regions in rice”.

Protein sequences, listed by entry. Tags and fused reporters are not part of them.
UniProt Q0JBA9, entry or part of it: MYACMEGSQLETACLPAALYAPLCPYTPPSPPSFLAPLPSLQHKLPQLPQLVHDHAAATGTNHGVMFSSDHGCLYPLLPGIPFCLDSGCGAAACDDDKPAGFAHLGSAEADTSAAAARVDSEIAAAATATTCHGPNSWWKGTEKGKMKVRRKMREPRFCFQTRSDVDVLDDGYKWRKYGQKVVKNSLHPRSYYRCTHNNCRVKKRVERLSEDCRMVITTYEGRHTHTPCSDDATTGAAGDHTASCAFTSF

The list shows a part of the results.

The test has as its target OsWRKY34 (Oryza sativa, UniProt Q0JBA9 1-250). Kind of test: protein-binding microarray (RPBM); PBS, 2% BSA, 51.3 ng/ul salmon testes DNA, 50 uM zinc acetate, 200 nM TF, 25 C, 1 h; high values mean tight binding. The note with it: protein: recombinant; tags: N-terminal polyhistidine and DsRed monomer fusion (pET32a); label: CyDye5-dUTP incorporated in the synthesized complementary strand; 3' TTTTT single-stranded linker to array surface; dsDNA, one strand shown. The method, boiled down: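 In PBS with 2% BSA, salmon testes DNA and 50 µM zinc acetate, 200 nM protein was incubated on a custom Agilent array at 25 °C for 1 h and then washed off. The array had been made double-stranded by primer extension with Cy5-dUTP and blocked with 2% BSA. The proteins were transcription factors fused N-terminally to polyhistidine and DsRed, expressed in E. coli BL21-CodonPlus and purified on Ni–NTA. The binding signal is per-feature fluorescence intensity (arbitrary units) from an Axon 4000B scanner.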
In the case of “CGCCACCACGTCGCGCACCTTCTCATTGGCCGGAACAAGTCGGAGTCACCTAGTGCAG”, the binding signal is 10700 fluorescence intensity (a.u.). Take “GCCCATCGTGCCGAGCTATCCTTCCACATACAGTGCTGGACGGAGTCACCTAGTGCAG”: the binding signal was 8260 fluorescence intensity (a.u.). Turning to “GGCGCAGTTCTTGCTTCACCTGCTTGTTTGTTTGCTTCGCCGGAGTCACCTAGTGCAG”, the binding signal was 13500 fluorescence intensity (a.u.). Regarding “TTTCACGTTTCGGCGCCATTTCGCCTTCTTCTTCACCTGGCGGAGTCACCTAGTGCAG”, the binding signal was 8450 fluorescence intensity (a.u.).

Take “AATTTTTTCCCACCACCTCCTTTCAAATTTTTTTATCTCCCGGAGTCACCTAGTGCAG”: the binding signal is 9230 fluorescence intensity (a.u.). The same measure for “CTGGTTGTGTGTTGGAGAATTTAAGCTCCTATGTGGAAAACGGAGTCACCTAGTGCAG”: 9670 fluorescence intensity (a.u.); for “TCGTTCGTTGGTTTGTTTTTTTTTTCTTTTCTCGCGTACACGGAGTCACCTAGTGCAG”: 11600 fluorescence intensity (a.u.); for “ACCACCAGCTTTGCTCCCGCTAGTTCCCGCTGATCGATCTCGGAGTCACCTAGTGCAG”: 9180 fluorescence intensity (a.u.). The same measure for “GTATTTCTCTTCGATACGGATATACACTACCGCCACCGTTCGGAGTCACCTAGTGCAG”: 8380 fluorescence intensity (a.u.). In the case of “AAAATTTTTACTACCACCTCTACATCCCGCAAGCATCTCCCGGAGTCACCTAGTGCAG”, the binding signal is 8550 fluorescence intensity (a.u.). Consider “TATAATATTATCAAACCAGGACTCCATGCCGTTCCATAATCGGAGTCACCTAGTGCAG”, for which the binding signal was 8200 fluorescence intensity (a.u.). For “TCCATCAGGTTGCAGTTGGTTCCATGTACAATCTTTCTTTCGGAGTCACCTAGTGCAG”, the binding signal was 8060 fluorescence intensity (a.u.). The same measure for “ATGACTTACCTTCTACATGTTGACTTTCAGGAGTGACTGTCGGAGTCACCTAGTGCAG”: 8650 fluorescence intensity (a.u.).

For the sequence “CTCCGCCTGCCTGCTCTAGCCGCTTGCCGCACCACGCTCTCGGAGTCACCTAGTGCAG”, the binding signal is 9670 fluorescence intensity (a.u.). For the sequence “ATTTTGCAAATCTCTCATTTATATATATCCATATACATATCGGAGTCACCTAGTGCAG”, the binding signal was 9090 fluorescence intensity (a.u.). With “CCAATTTAATTTCTATGGCTTGATTTCCTCTTTGGCACAACGGAGTCACCTAGTGCAG”, the binding signal is 8050 fluorescence intensity (a.u.).

Consider “TATGGGCGCGGTTTCGATTCCTCACAATGGCTGCCTTTGTCGGAGTCACCTAGTGCAG”, for which the binding signal was 9510 fluorescence intensity (a.u.).

For the sequence “GACTCTGTGCGCTCCATGTCATCCATCGTGCGGCCCACGTCGGAGTCACCTAGTGCAG”, the binding signal was 9310 fluorescence intensity (a.u.). The figure for “GCTGATGCTCTGTTTGTATTTTTTTTCCATTTTAGTACGTCGGAGTCACCTAGTGCAG” is 11200 fluorescence intensity (a.u.); for “ACGAAGACTAAGTCAACAAACCATATAGGCACCACGTTAACGGAGTCACCTAGTGCAG” it is 8780 fluorescence intensity (a.u.).

Turning to “TATCAATAGGTGTTTTCACTTGCTTATACTTTCAATTACACGGAGTCACCTAGTGCAG”, the binding signal is 8490 fluorescence intensity (a.u.). Turning to “AAACAAACACAGAGCTTCTCTCCTCTGTTCTCCTTCTCTGCGGAGTCACCTAGTGCAG”, the binding signal is 8090 fluorescence intensity (a.u.). As to “CAAATATCCGATGAGGCACCCAAAAATTTTCTTTTCGCGACGGAGTCACCTAGTGCAG”, the binding signal is 8710 fluorescence intensity (a.u.). “TGATCATCTATGCATTTCAAGATTAGCGTTGACTTGGAAACGGAGTCACCTAGTGCAG”: the binding signal was 10600 fluorescence intensity (a.u.).

Turning to “TCACTGACATATGGGCCCCATATATTTATTTTATTATTTTCGGAGTCACCTAGTGCAG”, the binding signal was 8170 fluorescence intensity (a.u.). For “TTCCCTTTTTCTTCCTTTTCTCTCTTTTCTCAGCCGCTACCGGAGTCACCTAGTGCAG”, the binding signal was 8170 fluorescence intensity (a.u.). Turning to “TATCTACAGTACTTTAAACACAACTTTTCGTTTTTTATATCGGAGTCACCTAGTGCAG”, the binding signal was 9420 fluorescence intensity (a.u.). For “TATTACGTTACTTAGCGGCCCGAACTTGGATAACTCCCTACGGAGTCACCTAGTGCAG”, the binding signal was 8480 fluorescence intensity (a.u.). Consider “AACAAAATAATTTCGGTTTTGCAAAATTTTCATGGTTTTCCGGAGTCACCTAGTGCAG”, for which the binding signal is 8540 fluorescence intensity (a.u.). As to “TTGATATCCATCTGCCTATTGGCCATTCCTCTAGGCACTCCGGAGTCACCTAGTGCAG”, the binding signal is 8420 fluorescence intensity (a.u.).

As for “CATCCATCTCCTTGCCCTTATCCGATCGCTATTAGAGCTCCGGAGTCACCTAGTGCAG”, the binding signal was 9930 fluorescence intensity (a.u.).

For the sequence “TCCGCCTCTCGCGTCGTCGTTTCCACAGTACTACTACAGTCGGAGTCACCTAGTGCAG”, the binding signal was 10100 fluorescence intensity (a.u.). The figure for “TGGGCGGTTAATTTGACTTCGATGTTCAGTACCTTGTGGGCGGAGTCACCTAGTGCAG” is 12300 fluorescence intensity (a.u.); for “GCTCATCTTTCAGCAGCATCGACAGCCTCAGACGCTCCTCCGGAGTCACCTAGTGCAG” it is 8800 fluorescence intensity (a.u.); for “GCTATTCCTGTCTTTACCTCATCTTTCTACAATCCACATCCGGAGTCACCTAGTGCAG” it is 10100 fluorescence intensity (a.u.). Regarding “ATGATTTCTTGCCTCGGACAGCCACTCCTTTAGAAGACATCGGAGTCACCTAGTGCAG”, the binding signal was 9000 fluorescence intensity (a.u.). Consider “CATGATTCTTACCAAGCTTTTTTTCCCGGTCAACTAGTAACGGAGTCACCTAGTGCAG”, for which the binding signal was 9340 fluorescence intensity (a.u.). In the case of “CCATTTCCGACGAAATTTCTGAAAACTGTTTACTACGTCCCGGAGTCACCTAGTGCAG”, the binding signal was 9170 fluorescence intensity (a.u.).

As to “CGCTCGACTTCTCTTCTCTCATACACGTGTCATTAAATTTCGGAGTCACCTAGTGCAG”, the binding signal is 11500 fluorescence intensity (a.u.). Regarding “TTACACTTGCATTCCTATCCAAATCCTATGTTTTCTCAATCGGAGTCACCTAGTGCAG”, the binding signal was 13400 fluorescence intensity (a.u.). As for “TCTCTCCTCTATATTATCGCCGACGCGCGCGCGCCACTGCCGGAGTCACCTAGTGCAG”, the binding signal was 9370 fluorescence intensity (a.u.). The same measure for “ATCGGATCTATGTTTTTTTTTCTATTTTTTTTGCCGCTTTCGGAGTCACCTAGTGCAG”: 8430 fluorescence intensity (a.u.).
